Results reported in patent publication US20090304615A1, “TRICYCLIC COMPOUNDS AS MELANOGENESIS MODIFIERS AND USES THEREOF” (priority 2007, published 2009).
Counter-ions that a name gives are not always drawn.

Tested on: cultured murine melanocytes (melan-a)
Assay: Melanin assay in cultured murine melanocytes (melan-a)
Type: cell-based
Conditions: Mus musculus; for IC50: read-out: IC50 range (μM)
Experimental: The Spectrum Collection library consisting of 2000 drug compounds or natural products was screened to identify novel pigmentation inhibitors or stimulators in cultured murine melanocytes (melan-a). Compounds were dissolved in dimethylsulfoxide (DMSO) to a final concentration of 10 mM. Screening was performed with cultured melanocytes in 24-well plates followed by melanin assay (see below). […] DMSO was used as a negative control and the widely used depigmenting agent, hydroquinone, was used as a positive control on every plate. […] All compounds were added at the indicated final concentrations. Cells were harvested after 72 hours of incubation, and melanin assay was performed. For further test and mechanism of action studies, the compounds were purchased from either Sigma or Microsoure. These compounds were dissolved in dimethylsulfoxide (DMSO) to a final concentration of 10 mM, and were tested for their effect on melanin synthesis at the indicated final concentrations. For the primary and secondary screening, cells were harvested and dissolved in 200 μl of 2N NaOH in 20% DMSO at 70° C. A 180-μl aliquot of the resulting solution was measured for absorbance at 490 nm. […] The lysates were centrifuged at 14,000 rpm for 10 minutes at 4° C. BCA protein assay kit (Pierce) was used to measure the protein concentrations of the supernatants, and bovine serum albumin was used as a standard. […] A 180-μl aliquot of the resulting solution was measured for absorbance at 490 nm. The melanin contents were normalized to the total amount of protein.

Structure (SMILES)	inhibition at 1 µM (72 h, read-out: % Inh. @ 1 μM) [%]	inhibition at 5 µM (72 h, read-out: % Inh. @ 5 μM) [%]	IC50 [µM]
CN(C)CCCN1c2ccccc2CCc2ccc(Cl)cc21 [compound 4, Clomipramine hydrochloride]	50	64	< 1
CN(C)CCC=C1c2ccccc2COc2ccccc21 (mixture of isomers) [compound 7, Doxepin hydrochloride]			2.5 to 5
